# Reference: the supplement of paper PMC8728848
# Some of the results follow.
# How the values were obtained:
# Test in all cases: glycan array binding signal (z-score within array); higher = stronger binding
# Conditions in all cases: glycan notation: IUPAC condensed, linker removed
# [1] = biological target: GalNAc(b1-4)GlcNAc(b1-2)Man
# Summary of the method: (§1)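 The binding signal is a Z-score computed within each array and averaged over linkers. Arrays of the same protein sequence at different concentrations or buffers were also averaged together. Data originate from 3228 arrays in the Consortium for Functional Glycomics database, kept only where the protein sequence was available.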
# [2] = biological target: GalNAc(b1-4)GlcNAc(b1-2)Man(a1-3)[GalNAc(b1-4)GlcNAc(b1-2)Man(a1-6)]Man(b1-4)GlcNAc(b1-4)GlcNAc
# Summary of the method: as §1
# [3] = biological target: GalNAc(b1-4)GlcNAc(b1-3)GalNAc(b1-4)GlcNAc
# Summary of the method: as §1
# [4] = biological target: GalNAc(b1-4)GlcNAc6S
# Summary of the method: as §1
# [5] = biological target: GalNAc(b1-6)GalNAc
# Summary of the method: as §1
# [6] = biological target: GalNAc3S(b1-4)GlcNAc
# Summary of the method: as §1
# [7] = biological target: GalNAc3S(b1-4)GlcNAc3S
# Summary of the method: as §1
# [8] = biological target: GalNAc3S(b1-4)[Fuc(a1-3)]GlcNAc
# Summary of the method: as §1
# [9] = biological target: GalNAc4S6S(b1-4)GlcNAc
# Summary of the method: as §1
# [10] = biological target: GalNAc6S(b1-4)GlcNAc
# Summary of the method: as §1
# [11] = biological target: Glc(a1-4)Glc
# Summary of the method: as §1
# [12] = biological target: Glc(a1-4)Glc(a1-4)Glc(a1-4)Glc
# Summary of the method: as §1
# [13] = biological target: Glc(a1-6)Glc(a1-6)Glc
# Summary of the method: as §1
# [14] = biological target: Glc(a1-6)Glc(a1-6)Glc(a1-6)Glc
# Summary of the method: as §1
# [15] = biological target: Glc(b1-4)Glc
# Summary of the method: as §1
# [16] = biological target: Glc(b1-6)Glc
# Summary of the method: as §1
# [17] = biological target: GlcA(b1-3)Gal
# Summary of the method: as §1
# [18] = biological target: GlcA(b1-3)GlcNAc
# Summary of the method: as §1
# [19] = biological target: GlcA(b1-6)Gal
# Summary of the method: as §1
# [20] = biological target: GlcA3S(b1-3)Gal(b1-4)GlcNAc(b1-2)Man
# Summary of the method: as §1
# [21] = biological target: GlcA3S(b1-3)Gal(b1-4)GlcNAc(b1-3)Gal(b1-4)Glc
# Summary of the method: as §1
# [22] = biological target: GlcNAc(a1-3)Gal(b1-4)GlcNAc
# Summary of the method: as §1
# [23] = biological target: GlcNAc(a1-4)Gal(b1-3)GlcNAc
# Summary of the method: as §1
# [24] = biological target: GlcNAc(a1-4)Gal(b1-4)GalNAc
# Summary of the method: as §1
# [25] = biological target: GlcNAc(a1-4)Gal(b1-4)GlcNAc
# Summary of the method: as §1
# [26] = biological target: GlcNAc(a1-4)Gal(b1-4)GlcNAc(b1-3)Gal(b1-4)Glc
# Summary of the method: as §1
# [27] = biological target: GlcNAc(a1-4)Gal(b1-4)GlcNAc(b1-3)Gal(b1-4)GlcNAc
# Summary of the method: as §1
# [28] = biological target: GlcNAc(a1-4)Gal(b1-4)GlcNAc(b1-3)Gal(b1-4)GlcNAc(b1-3)Gal(b1-4)GlcNAc
# Summary of the method: as §1
# [29] = biological target: GlcNAc(a1-4)Gal(b1-4)GlcNAc(b1-3)Gal(b1-4)[Fuc(a1-3)]GlcNAc(b1-3)Gal(b1-4)[Fuc(a1-3)]GlcNAc
# Summary of the method: as §1
# [30] = biological target: GlcNAc(a1-6)Gal(b1-4)GlcNAc
# Summary of the method: as §1
# [31] = biological target: GlcNAc(b1-2)Gal(b1-3)GalNAc
# Summary of the method: as §1
# [32] = biological target: GlcNAc(b1-2)Man(a1-3)[GlcNAc(b1-2)Man(a1-6)]Man(b1-4)GlcNAc(b1-4)GlcNAc
# Summary of the method: as §1
# [33] = biological target: GlcNAc(b1-2)Man(a1-3)[GlcNAc(b1-2)Man(a1-6)]Man(b1-4)GlcNAc(b1-4)[Fuc(a1-6)]GlcNAc
# Summary of the method: as §1
# [34] = biological target: GlcNAc(b1-2)Man(a1-3)[GlcNAc(b1-4)][GlcNAc(b1-2)Man(a1-6)]Man(b1-4)GlcNAc(b1-4)GlcNAc
# Summary of the method: as §1
# [35] = biological target: GlcNAc(b1-2)Man(a1-3)[GlcNAc(b1-4)][GlcNAc(b1-2)Man(a1-6)]Man(b1-4)GlcNAc(b1-4)[Fuc(a1-6)]GlcNAc
# Summary of the method: as §1
# [36] = biological target: GlcNAc(b1-2)[GlcNAc(b1-4)]Man(a1-3)[GlcNAc(b1-2)Man(a1-6)]Man(b1-4)GlcNAc(b1-4)GlcNAc
# Summary of the method: as §1
# [37] = biological target: GlcNAc(b1-2)[GlcNAc(b1-4)]Man(a1-3)[GlcNAc(b1-4)][GlcNAc(b1-2)Man(a1-6)]Man(b1-4)GlcNAc(b1-4)GlcNAc
# Summary of the method: as §1
# [38] = biological target: GlcNAc(b1-2)[GlcNAc(b1-4)]Man(a1-3)[GlcNAc(b1-4)][GlcNAc(b1-2)[GlcNAc(b1-6)]Man(a1-6)]Man(b1-4)GlcNAc(b1-4)GlcNAc
# Summary of the method: as §1
# [39] = biological target: GlcNAc(b1-2)[GlcNAc(b1-4)]Man(a1-3)[GlcNAc(b1-4)][GlcNAc(b1-2)[GlcNAc(b1-6)]Man(a1-6)]Man(b1-4)GlcNAc(b1-4)[Fuc(a1-6)]GlcNAc
# Summary of the method: as §1
# [40] = biological target: GlcNAc(b1-2)[GlcNAc(b1-6)]Man(a1-6)[GlcNAc(b1-2)Man(a1-3)]Man(b1-4)GlcNAc(b1-4)GlcNAc
# Summary of the method: as §1
# [41] = biological target: GlcNAc(b1-2)[GlcNAc(b1-6)]Man(a1-6)[GlcNAc(b1-2)Man(a1-3)]Man(b1-4)GlcNAc(b1-4)[Fuc(a1-6)]GlcNAc
# Summary of the method: as §1
# [42] = biological target: GlcNAc(b1-2)[GlcNAc(b1-6)]Man(a1-6)[GlcNAc(b1-4)][GlcNAc(b1-2)Man(a1-3)]Man(b1-4)GlcNAc(b1-4)GlcNAc
# Summary of the method: as §1
# [43] = biological target: GlcNAc(b1-3)Fuc
# Summary of the method: as §1
# [44] = biological target: GlcNAc(b1-3)Gal
# Summary of the method: as §1
# [45] = biological target: GlcNAc(b1-3)Gal(b1-3)GalNAc
# Summary of the method: as §1
binder,measurement,setting,value
Mincle (Bos taurus) (protein) MNSSTSPASQTERRCFSFQLFSWAIAGTSILLLSACFITRCVVTYSIFQLCDEKKFQPPGDSMELSCYNDGSGSVKNCCPLKWFHFQSSCYLFSPDTMSWRASLKNCSSMGAHLVVINTQEEQEFLYYTKPRKKEFYIGLTDQVTEGQWQWVDGTPFTKSLSFWDAGEPNNLVIVEDCATIRDSSNPRQNWNDVPCFFNMFRVCEMPERKI,glycan array binding signal (z-score),[1],-1.53
same,glycan array binding signal (z-score),[2],-0.279
same,glycan array binding signal (z-score),[3],-1.15
same,glycan array binding signal (z-score),[4],-1.24
same,glycan array binding signal (z-score),[5],-0.574
same,glycan array binding signal (z-score),[6],-0.525
same,glycan array binding signal (z-score),[7],-0.009
same,glycan array binding signal (z-score),[8],-0.127
same,glycan array binding signal (z-score),[9],-0.124
same,glycan array binding signal (z-score),[10],-1.07
same,glycan array binding signal (z-score),[11],-0.009
same,glycan array binding signal (z-score),[12],-0.197
same,glycan array binding signal (z-score),[13],-0.196
same,glycan array binding signal (z-score),[14],-0.241
same,glycan array binding signal (z-score),[15],-0.39
same,glycan array binding signal (z-score),[16],-0.207
same,glycan array binding signal (z-score),[17],0.234
same,glycan array binding signal (z-score),[18],1.45
same,glycan array binding signal (z-score),[19],0.667
same,glycan array binding signal (z-score),[20],0.4
same,glycan array binding signal (z-score),[21],-0.496
same,glycan array binding signal (z-score),[22],-0.605
same,glycan array binding signal (z-score),[23],-0.091
same,glycan array binding signal (z-score),[24],0.256
same,glycan array binding signal (z-score),[25],0.113
same,glycan array binding signal (z-score),[26],-0.075
same,glycan array binding signal (z-score),[27],-0.27
same,glycan array binding signal (z-score),[28],0.104
same,glycan array binding signal (z-score),[29],1.02
same,glycan array binding signal (z-score),[30],-0.264
same,glycan array binding signal (z-score),[31],-0.477
same,glycan array binding signal (z-score),[32],-0.423
same,glycan array binding signal (z-score),[33],0.096
same,glycan array binding signal (z-score),[34],-0.256
same,glycan array binding signal (z-score),[35],-0.582
same,glycan array binding signal (z-score),[36],-0.208
same,glycan array binding signal (z-score),[37],-0.443
same,glycan array binding signal (z-score),[38],-0.222
same,glycan array binding signal (z-score),[39],0.136
same,glycan array binding signal (z-score),[40],-0.042
same,glycan array binding signal (z-score),[41],0.676
same,glycan array binding signal (z-score),[42],-0.45
same,glycan array binding signal (z-score),[43],0.278
same,glycan array binding signal (z-score),[44],-0.095
same,glycan array binding signal (z-score),[45],-0.293

# An excerpt of these results, bar-delimited.
binder | measurement | setting | value
Mincle (Bos taurus) (protein) MNSSTSPASQTERRCFSFQLFSWAIAGTSILLLSACFITRCVVTYSIFQLCDEKKFQPPGDSMELSCYNDGSGSVKNCCPLKWFHFQSSCYLFSPDTMSWRASLKNCSSMGAHLVVINTQEEQEFLYYTKPRKKEFYIGLTDQVTEGQWQWVDGTPFTKSLSFWDAGEPNNLVIVEDCATIRDSSNPRQNWNDVPCFFNMFRVCEMPERKI | glycan array binding signal (z-score) | [3] | -1.15
same | glycan array binding signal (z-score) | [6] | -0.525
same | glycan array binding signal (z-score) | [11] | -0.009
same | glycan array binding signal (z-score) | [16] | -0.207
same | glycan array binding signal (z-score) | [20] | 0.4
same | glycan array binding signal (z-score) | [25] | 0.113
same | glycan array binding signal (z-score) | [26] | -0.075
same | glycan array binding signal (z-score) | [45] | -0.293
